Source: patent US20230310654A1 (priority 2020, published 2023)

System: juvenile mice
Settings: mouse, in vivo

## conduritol-β-epoxide [CBE]
  open field assay: no general motor deficits
